Assay results as given in PubChem BioAssay AID624291 (National Center for Advancing Translational Sciences (NCATS), 2012).
Hit rate of the full screen: of about 350,000 compounds, about 220 (0.063%) were called active. Inconclusive results, whose numbers are uncertain, are shown with a selection of clear calls. Calls come from the whole dose curve; as a rule, active = well fitted activation curve with a large enough effect; inconclusive = small, poorly fitted or top-dose-only effect; inactive = no such curve, though single readings can be large or run the other way. Where the call is inconclusive, the potency comes from a doubtful curve fit.

Experiment: qHTS for Activators of Integrin-Mediated Alleviation for Muscular Dystrophy; note: nearly all actives have a fitted effect of over 60% in size;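 for activation: 100% = response of the positive control SU9516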
Settings: alpha7betagal myoblasts, beta-gal FDG fluorescence, 48 h; activation: at 38.3 µM (top of the series)
Procedure, shortened: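 Alpha7betagal+/- myoblasts (passage 13) were plated 16-24 hr, then exposed to compounds (1:260 dilution of DMSO stock) for 48 hours at 37C. After MPER lysis, β-galactosidase reporter activity was read as FDG fluorescence (ex 480/em 540) after 30 minutes.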
Potency is the fitted concentration of half-maximal effect.

| SMILES | Potency | activation |
| --- | --- | --- |
| COc1cc(C)nc(N(C)C(C)=O)n1 | inconclusive: 8.91 µM [activator, partial curve, poor fit] | – |
| Cc1c(Cl)cccc1NC(=S)N1CCN(c2ccc([N+](=O)[O-])cn2)CC1 | inconclusive: 4.47 µM [activator, single point] | – |
| C/C(=N/OCO/N=C(\C)c1ccccc1)c1ccccc1 | inconclusive: 2.82 µM [activator, single point] | – |
| CS(=O)(=O)Nc1ccccc1C(=O)Nc1cc2c(cc1C(=O)O)OCCCO2 | inconclusive: 6.31 µM [activator, partial curve, poor fit] | – |
| O=C(CSc1nc2ccccc2s1)Nc1cc(S(=O)(=O)N2CCOCC2)ccc1O | – | inactive: -10.8% |
| C[C@H](CO)N1C[C@H](C)[C@@H](CN(C)Cc2ccccc2)OCc2cnnn2CCCC1=O | – | inactive: 7.48% |
| COc1ccc(Cc2nnc(NC(=O)Nc3cccc(OC)c3)s2)cc1 | inconclusive: 28.2 µM [activator, single point] | – |
| COc1cc(C)ccc1OCc1cc(C(=O)N2CCCCCC2)no1 | inconclusive: 5.01 µM [activator, single point] | – |
| COCCOC(=O)c1c(C)n(C)c2ccc(OC(=O)c3c(OC)cccc3OC)cc12 | inconclusive: 28.2 µM [activator, single point] | – |
| O=[N+]([O-])/C(=C\Nc1ccc(F)cc1F)S(=O)(=O)c1ccccc1 | inconclusive: 8.91 µM [activator, partial curve, poor fit] | – |
| CCOc1ccc(S(=O)(=O)Nc2nc3ccccc3nc2-n2ccc(=NC(=O)c3cccs3)cc2)cc1 | inconclusive: 11.2 µM [activator, single point] | – |
| Oc1cccc2c(NC(=S)Nc3ccc(OC(F)F)cc3)cccc12 | inconclusive: 17.8 µM [activator, partial curve, poor fit] | – |
| CC(c1ccon1)N(C)Cc1cn(Cc2ccccc2)nc1-c1ccc2c(c1)OCO2 (stereo not drawn) | – | inactive: 11.2% |
| O=C(COC(=O)c1ccc([N+](=O)[O-])o1)NCCCc1ccccc1 | inconclusive: 0.501 µM [activator, full curve, poor fit] | – |
| Cc1nc(COC(=O)c2ccc(S(=O)(=O)N3CCCC3)cc2)cs1 | – | inactive: -13.5% |
| Cc1cccc(C)c1NC(=O)C(Cl)=C(Cl)Cl | – | inactive: -15.6% |
| O=c1/c(=C/c2ccco2)sc2n1CN(c1ccccc1)CN=2 | – | inactive: -7.49% |
| COc1ccccc1N1CCN(C2CC(=O)N(C)C2=O)CC1 (stereo not drawn) | – | inactive: 13.9% |
| Cc1ccccc1N(CC(=O)Nc1ccc(S(=O)(=O)N2CCOCC2)cc1)S(C)(=O)=O | inconclusive: 22.4 µM [activator, single point] | – |
| CC(=O)c1cccc(OCC(=O)Nc2cc(S(=O)(=O)N3CCOCC3)ccc2N2CCCC2)c1 | inconclusive: 1 µM [activator, partial curve, poor fit] | – |
| Nc1nc(Nc2ccccc2F)nc(NC2CCCCC2)c1[N+](=O)[O-] | inconclusive: 14.1 µM [activator, single point] | – |
| Cc1ccccc1C(=O)Nc1ccc2nc3n(c(=O)c2c1)CCCC3 | inconclusive: 5.01 µM [activator, single point] | – |

| SMILES | Potency | activation |
| --- | --- | --- |
| COc1ccccc1C1CCN(Cc2cccc3ccccc23)CC1 | inconclusive: 11.2 µM [activator, single point] | – |
| O=C(c1cccc(S(=O)(=O)N2CCN(c3ccccc3)CC2)c1)N1CC=C(c2ccccc2)CC1 | inconclusive: 2.82 µM [activator, partial curve, poor fit] | – |
| CCC(C)(C)n1nnnc1C(c1ccc2ncccc2c1)N1CCN(c2nc3ccccc3s2)CC1 (stereo not drawn) | inconclusive: 10 µM [activator, partial curve] | – |
| Cc1ccc(C(=O)Nc2nccc(-c3cccs3)n2)cc1 | inconclusive: 5.01 µM [activator, single point] | – |
| C#CCNC(=O)C1=C[C@@H](c2ccc(C(F)(F)F)cc2)C[C@@H](OCCCCO)O1 | – | inactive: 8.29% |
| COc1cc(O)cc(/C=C/c2ccccc2)c1 | – | inactive: 7.62% |
| COc1ccc(OC)c(NC(=O)C2CCCN2S(=O)(=O)c2cccc3nsnc23)c1 (stereo not drawn) | inconclusive: 0.501 µM [activator, full curve, poor fit] | – |
| O=C(C1=C[C@H](c2coc3ccccc3c2=O)C[C@H](OCc2ccc(CO)cc2)O1)N1CCN(Cc2ccc3c(c2)OCO3)CC1 | – | inactive: -12.5% |
| CCCCCC(=O)Nc1cc(N(C)C)nc2ccccc12 | – | inactive: 11.6% |
| O=C(/C=C/c1ccco1)OCC(=O)c1cccc([N+](=O)[O-])c1 | – | inactive: -22.8% |
| CNC(=O)N(O)C1N(/N=C/c2ccc(N(C)C)cc2)C(=S)SC1(C)C (stereo not drawn) | inconclusive: 5.01 µM [activator, single point] | – |
| CC(C)Oc1ccc(S(=O)(=O)N2CCCCC2)cc1NC(=O)C1CSC2(C)CCC(=O)N12 (stereo not drawn) | inconclusive: 8.91 µM [activator, partial curve, poor fit] | – |
| COc1ccc(NC(=O)C2(S(=O)(=O)c3ccc(C)cc3)CC2)cc1 | inconclusive: 17.8 µM [activator, single point] | – |
| OCCC1CN(Cc2cccc(-c3ccco3)c2)CCN1Cc1ccsc1 (stereo not drawn) | inconclusive: 5.01 µM [activator, single point] | – |
| COc1cccc(C2CC(c3ccccc3)=NN2S(=O)(=O)c2ccc(C)cc2)c1OC (stereo not drawn) | – | inactive: 4.1% |
| O=C(O)CN1C(=O)c2cccc3c(Br)ccc1c23 | – | inactive: -19.7% |
| COCCNC(=O)c1cc(-c2ccccn2)nc2ccc(S(=O)(=O)N3CCC(C)CC3)cc12 | inconclusive: 28.2 µM [activator, single point] | – |
| CC(=O)c1cccc(N2C(=O)Nc3ccccc3N2O)c1 | inconclusive: 3.16 µM [activator, single point] | – |
| O=C(CN1C(=O)c2ccccc2C1=O)Nc1ccc2c(c1)OCO2 | inconclusive: 2.82 µM [activator, single point] | – |
| COC(=O)CSc1ncnc2c1sc1nc3c(cc12)COC(C)(C)C3 | – | inactive: -2.05% |
| Cc1cc(C)c(S(=O)(=O)Cc2ccccc2)c(OC(C)C)n1 | inconclusive: 3.16 µM [activator, single point] | – |

Rewritten bar-delimited: part of the list above.
SMILES | Potency | activation
O=C(/C=C/c1ccco1)OCC(=O)c1cccc([N+](=O)[O-])c1 | – | inactive: -22.8%
CNC(=O)N(O)C1N(/N=C/c2ccc(N(C)C)cc2)C(=S)SC1(C)C (stereo not drawn) | inconclusive: 5.01 µM [activator, single point] | –
CC(C)Oc1ccc(S(=O)(=O)N2CCCCC2)cc1NC(=O)C1CSC2(C)CCC(=O)N12 (stereo not drawn) | inconclusive: 8.91 µM [activator, partial curve, poor fit] | –
COc1ccc(NC(=O)C2(S(=O)(=O)c3ccc(C)cc3)CC2)cc1 | inconclusive: 17.8 µM [activator, single point] | –
